The values that follow come from the supplement of paper PMC12595434, “Development of retinoid nuclear receptor pathway antagonists through targeting aldehyde dehydrogenase 1A3” (iScience, 2025).

Sequences of proteins named here, by UniProt entry; tags and fusion partners are left off. A change or cut given only in a name is not applied to a line headed by its entry.
UniProt Q9H1K0: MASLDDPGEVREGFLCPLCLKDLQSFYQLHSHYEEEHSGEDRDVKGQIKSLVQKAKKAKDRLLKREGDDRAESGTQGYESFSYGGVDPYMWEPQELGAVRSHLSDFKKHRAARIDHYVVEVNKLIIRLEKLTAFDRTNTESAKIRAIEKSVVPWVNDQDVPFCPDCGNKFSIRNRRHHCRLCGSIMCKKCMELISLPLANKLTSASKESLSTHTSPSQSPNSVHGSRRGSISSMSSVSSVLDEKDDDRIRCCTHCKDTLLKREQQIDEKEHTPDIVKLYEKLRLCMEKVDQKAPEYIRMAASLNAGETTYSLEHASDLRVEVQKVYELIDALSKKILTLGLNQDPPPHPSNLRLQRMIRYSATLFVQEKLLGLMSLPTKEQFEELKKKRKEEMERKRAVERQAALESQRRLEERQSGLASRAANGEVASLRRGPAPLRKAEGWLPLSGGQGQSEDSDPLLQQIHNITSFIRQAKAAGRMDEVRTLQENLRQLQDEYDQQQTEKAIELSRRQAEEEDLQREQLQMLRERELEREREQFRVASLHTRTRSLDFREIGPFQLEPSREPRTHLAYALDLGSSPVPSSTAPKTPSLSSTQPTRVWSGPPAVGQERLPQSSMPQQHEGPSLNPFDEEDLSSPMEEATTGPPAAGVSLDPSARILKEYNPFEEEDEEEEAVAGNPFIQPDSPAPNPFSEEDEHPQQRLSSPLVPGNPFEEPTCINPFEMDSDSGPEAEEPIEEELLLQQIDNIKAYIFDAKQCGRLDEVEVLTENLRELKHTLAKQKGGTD
UniProt Q9H0A0: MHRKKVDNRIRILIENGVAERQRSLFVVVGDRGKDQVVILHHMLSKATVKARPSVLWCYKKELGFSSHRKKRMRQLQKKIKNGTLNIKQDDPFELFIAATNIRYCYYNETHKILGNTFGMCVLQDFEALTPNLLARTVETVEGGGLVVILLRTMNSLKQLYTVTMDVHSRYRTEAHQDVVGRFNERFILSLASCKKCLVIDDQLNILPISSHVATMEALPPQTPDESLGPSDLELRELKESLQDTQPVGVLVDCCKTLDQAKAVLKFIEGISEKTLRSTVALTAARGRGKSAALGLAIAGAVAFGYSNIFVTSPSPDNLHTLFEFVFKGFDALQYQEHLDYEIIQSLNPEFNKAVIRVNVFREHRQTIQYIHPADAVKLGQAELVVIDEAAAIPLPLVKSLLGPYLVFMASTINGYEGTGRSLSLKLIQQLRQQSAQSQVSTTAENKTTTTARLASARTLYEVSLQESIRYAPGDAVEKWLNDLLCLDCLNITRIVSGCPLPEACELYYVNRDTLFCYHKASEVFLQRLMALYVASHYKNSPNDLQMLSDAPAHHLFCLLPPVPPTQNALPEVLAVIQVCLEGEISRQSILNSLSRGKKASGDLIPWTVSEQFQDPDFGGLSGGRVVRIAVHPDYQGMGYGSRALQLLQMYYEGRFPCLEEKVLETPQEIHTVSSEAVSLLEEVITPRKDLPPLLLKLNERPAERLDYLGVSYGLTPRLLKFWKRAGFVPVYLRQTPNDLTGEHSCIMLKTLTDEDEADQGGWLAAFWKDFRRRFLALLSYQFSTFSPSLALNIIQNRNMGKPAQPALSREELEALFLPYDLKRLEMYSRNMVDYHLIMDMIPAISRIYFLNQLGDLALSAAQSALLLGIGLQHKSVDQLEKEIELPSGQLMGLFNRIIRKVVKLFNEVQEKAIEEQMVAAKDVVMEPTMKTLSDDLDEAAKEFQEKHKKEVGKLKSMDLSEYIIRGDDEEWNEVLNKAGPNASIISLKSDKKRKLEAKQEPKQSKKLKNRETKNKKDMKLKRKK
UniProt Q9H0V1: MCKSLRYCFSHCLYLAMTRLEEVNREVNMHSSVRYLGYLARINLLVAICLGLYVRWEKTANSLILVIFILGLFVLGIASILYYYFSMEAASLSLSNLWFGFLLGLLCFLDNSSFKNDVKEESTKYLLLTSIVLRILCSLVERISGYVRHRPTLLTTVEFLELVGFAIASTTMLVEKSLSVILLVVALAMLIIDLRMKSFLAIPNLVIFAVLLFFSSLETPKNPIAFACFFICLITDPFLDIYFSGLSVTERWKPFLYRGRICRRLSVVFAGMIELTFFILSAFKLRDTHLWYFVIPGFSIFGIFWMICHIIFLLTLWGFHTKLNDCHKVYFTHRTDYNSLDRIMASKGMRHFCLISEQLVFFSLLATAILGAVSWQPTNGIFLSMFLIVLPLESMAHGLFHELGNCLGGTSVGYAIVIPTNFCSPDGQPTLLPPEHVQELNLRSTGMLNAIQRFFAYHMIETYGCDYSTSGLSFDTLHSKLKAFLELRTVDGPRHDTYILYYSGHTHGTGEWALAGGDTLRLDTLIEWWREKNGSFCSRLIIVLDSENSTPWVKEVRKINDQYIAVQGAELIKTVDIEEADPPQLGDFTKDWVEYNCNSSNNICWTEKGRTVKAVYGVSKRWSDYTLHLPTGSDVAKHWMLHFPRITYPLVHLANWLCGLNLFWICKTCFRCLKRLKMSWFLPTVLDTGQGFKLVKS
UniProt Q9H2J4: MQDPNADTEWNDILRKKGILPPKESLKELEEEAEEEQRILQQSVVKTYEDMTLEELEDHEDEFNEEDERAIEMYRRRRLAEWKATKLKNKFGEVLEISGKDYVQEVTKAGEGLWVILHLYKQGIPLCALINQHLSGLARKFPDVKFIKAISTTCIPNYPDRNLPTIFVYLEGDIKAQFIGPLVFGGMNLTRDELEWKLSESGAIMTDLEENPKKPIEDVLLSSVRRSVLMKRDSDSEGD
UniProt Q9H6L2: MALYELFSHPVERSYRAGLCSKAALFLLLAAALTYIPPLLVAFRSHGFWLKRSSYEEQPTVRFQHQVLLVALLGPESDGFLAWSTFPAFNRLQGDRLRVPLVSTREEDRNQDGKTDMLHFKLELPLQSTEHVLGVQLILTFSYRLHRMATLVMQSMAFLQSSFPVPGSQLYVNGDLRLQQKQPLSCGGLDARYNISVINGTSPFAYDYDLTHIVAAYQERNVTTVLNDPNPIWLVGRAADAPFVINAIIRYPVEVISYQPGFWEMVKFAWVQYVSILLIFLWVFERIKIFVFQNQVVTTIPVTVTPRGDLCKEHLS
UniProt Q9H173: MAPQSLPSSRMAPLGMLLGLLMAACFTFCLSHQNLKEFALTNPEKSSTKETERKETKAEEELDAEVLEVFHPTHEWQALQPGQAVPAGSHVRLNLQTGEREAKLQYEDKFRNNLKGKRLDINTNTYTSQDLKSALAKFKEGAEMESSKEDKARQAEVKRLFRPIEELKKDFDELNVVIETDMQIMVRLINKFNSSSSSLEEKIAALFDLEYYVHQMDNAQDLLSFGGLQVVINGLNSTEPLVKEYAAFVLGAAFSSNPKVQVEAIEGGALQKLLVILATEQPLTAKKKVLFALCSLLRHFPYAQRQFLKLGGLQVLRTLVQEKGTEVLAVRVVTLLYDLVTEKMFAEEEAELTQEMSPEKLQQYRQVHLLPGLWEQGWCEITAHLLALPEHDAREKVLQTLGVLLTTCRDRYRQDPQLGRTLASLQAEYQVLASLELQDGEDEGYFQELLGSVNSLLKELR
UniProt Q9H1Y0: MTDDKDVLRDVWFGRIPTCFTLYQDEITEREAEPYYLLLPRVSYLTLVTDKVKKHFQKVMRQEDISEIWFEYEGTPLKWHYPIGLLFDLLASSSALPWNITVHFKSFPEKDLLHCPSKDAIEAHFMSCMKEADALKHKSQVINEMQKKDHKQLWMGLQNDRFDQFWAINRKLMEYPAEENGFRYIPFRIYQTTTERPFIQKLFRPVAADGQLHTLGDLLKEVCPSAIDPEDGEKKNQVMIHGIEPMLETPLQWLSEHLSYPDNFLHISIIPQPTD
UniProt Q9H2M9: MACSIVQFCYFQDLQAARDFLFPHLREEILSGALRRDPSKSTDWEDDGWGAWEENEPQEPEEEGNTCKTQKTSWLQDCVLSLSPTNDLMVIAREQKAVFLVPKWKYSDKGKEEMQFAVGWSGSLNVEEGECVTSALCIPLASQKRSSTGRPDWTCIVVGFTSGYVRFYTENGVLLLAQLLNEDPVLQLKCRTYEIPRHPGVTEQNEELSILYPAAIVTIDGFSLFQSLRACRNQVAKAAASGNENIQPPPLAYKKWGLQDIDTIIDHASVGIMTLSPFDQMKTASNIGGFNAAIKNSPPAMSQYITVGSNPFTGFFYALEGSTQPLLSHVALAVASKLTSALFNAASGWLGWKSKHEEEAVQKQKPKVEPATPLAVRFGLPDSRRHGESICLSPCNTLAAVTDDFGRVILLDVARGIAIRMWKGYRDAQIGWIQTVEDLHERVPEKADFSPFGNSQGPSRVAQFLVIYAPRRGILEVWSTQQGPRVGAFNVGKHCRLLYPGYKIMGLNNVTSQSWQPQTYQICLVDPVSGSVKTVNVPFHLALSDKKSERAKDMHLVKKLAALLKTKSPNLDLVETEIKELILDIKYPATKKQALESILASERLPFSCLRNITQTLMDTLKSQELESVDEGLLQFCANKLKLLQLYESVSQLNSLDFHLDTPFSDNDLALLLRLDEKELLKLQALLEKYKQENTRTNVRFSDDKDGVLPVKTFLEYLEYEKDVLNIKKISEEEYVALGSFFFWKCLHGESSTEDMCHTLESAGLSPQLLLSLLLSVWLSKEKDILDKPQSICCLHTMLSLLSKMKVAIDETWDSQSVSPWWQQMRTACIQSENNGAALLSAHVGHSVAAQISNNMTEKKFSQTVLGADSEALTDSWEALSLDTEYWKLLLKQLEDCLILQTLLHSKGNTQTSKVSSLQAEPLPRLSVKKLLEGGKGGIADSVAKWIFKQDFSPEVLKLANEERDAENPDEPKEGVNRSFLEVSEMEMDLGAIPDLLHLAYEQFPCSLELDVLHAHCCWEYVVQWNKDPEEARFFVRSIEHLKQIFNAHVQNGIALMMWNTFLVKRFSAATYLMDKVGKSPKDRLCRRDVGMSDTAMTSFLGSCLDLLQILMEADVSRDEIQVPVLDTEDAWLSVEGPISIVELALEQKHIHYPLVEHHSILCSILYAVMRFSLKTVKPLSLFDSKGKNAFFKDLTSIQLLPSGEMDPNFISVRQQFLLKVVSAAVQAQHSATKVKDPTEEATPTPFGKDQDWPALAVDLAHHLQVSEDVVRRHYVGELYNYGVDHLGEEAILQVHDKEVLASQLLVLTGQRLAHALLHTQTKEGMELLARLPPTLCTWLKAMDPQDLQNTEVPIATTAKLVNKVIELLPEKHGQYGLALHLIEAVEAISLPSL
UniProt Q9BZX2: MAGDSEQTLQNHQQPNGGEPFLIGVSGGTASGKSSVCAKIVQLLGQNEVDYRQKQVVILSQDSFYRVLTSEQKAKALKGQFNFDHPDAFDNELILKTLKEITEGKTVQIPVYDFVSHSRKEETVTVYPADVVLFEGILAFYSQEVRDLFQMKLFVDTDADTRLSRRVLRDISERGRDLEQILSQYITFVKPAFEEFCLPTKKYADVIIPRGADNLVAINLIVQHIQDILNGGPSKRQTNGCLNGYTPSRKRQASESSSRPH
UniProt Q9BYC5: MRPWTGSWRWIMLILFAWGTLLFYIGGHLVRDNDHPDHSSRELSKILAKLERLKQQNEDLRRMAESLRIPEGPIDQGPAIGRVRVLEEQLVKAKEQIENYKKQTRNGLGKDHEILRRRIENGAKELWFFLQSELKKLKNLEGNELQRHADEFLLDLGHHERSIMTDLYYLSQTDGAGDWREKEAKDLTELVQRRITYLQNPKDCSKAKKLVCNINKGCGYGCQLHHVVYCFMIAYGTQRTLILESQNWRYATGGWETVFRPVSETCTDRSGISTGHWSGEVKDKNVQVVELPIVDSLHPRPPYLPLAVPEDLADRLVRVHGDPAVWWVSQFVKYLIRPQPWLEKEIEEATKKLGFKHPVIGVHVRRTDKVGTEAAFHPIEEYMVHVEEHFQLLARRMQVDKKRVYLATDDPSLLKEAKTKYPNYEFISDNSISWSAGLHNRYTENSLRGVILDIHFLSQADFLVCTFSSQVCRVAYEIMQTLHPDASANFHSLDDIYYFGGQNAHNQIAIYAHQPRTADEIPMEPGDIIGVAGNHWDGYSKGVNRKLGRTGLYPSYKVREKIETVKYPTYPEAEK
UniProt Q9H5Q4: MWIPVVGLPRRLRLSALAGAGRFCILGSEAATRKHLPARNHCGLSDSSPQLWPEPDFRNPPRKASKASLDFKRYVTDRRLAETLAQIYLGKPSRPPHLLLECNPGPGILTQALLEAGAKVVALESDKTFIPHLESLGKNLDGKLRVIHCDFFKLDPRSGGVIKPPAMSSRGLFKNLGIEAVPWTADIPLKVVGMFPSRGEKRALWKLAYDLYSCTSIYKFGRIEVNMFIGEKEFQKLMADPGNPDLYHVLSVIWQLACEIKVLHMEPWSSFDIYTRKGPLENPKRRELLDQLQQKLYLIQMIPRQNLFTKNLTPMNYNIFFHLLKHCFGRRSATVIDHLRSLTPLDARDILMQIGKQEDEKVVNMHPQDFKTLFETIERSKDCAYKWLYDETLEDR

The list shows a part of the results. The data scatter; read single values as rough.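 Tm was set to 64 °C where no melting was found, and many curves are irregular.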

Compound in one experiment: CCc1cnccc1C(=O)Nc1cc2c(cc1F)NC(=O)CC2
Briefly: melting temperature shift (DMSO Tm minus MBE1-treated Tm) in cellular thermal proteome profiling; higher = less thermal stabilization by MBE1 (negative = stabilized by MBE1). Particulars: A375; MBE1 concentration: 100 nM.
With GTPBP4 (UniProt Q9BZE4), the melting temperature shift is -0.545 °C.
Regarding RBSN (UniProt Q9H1K0), the melting temperature shift was -0.895 °C.
SMARCAD1 (UniProt Q9H4L7): the melting temperature shift is -1.07 °C.
The same measure, in the same setting: with NAT10 (UniProt Q9H0A0) the figure was -0.301 °C; with UniProt Q9H6A9, -0.434 °C; with UACA (UniProt Q9BZF9), -1.42 °C.
Take ALG2 (UniProt Q9H553): the melting temperature shift came to 0.0427 °C.
In the case of UniProt Q9H0V1, the melting temperature shift was -0.604 °C.
The same measure, in the same setting: with MRPL18 (UniProt Q9H0U6) the figure was -0.421 °C; with PDCL3 (UniProt Q9H2J4), -0.794 °C; with UniProt Q9H6L2, -0.293 °C.
The same measure, in the same setting: the value for KIF13A (UniProt Q9H1H9) was 1.21 °C; that for TMEM245 (UniProt Q9H330) was 0.697 °C; that for UniProt Q9C026 was 0.0122 °C.
Still for that read-out and setting: with WDR13 (UniProt Q9H1Z4) the figure was -1.61 °C; with UniProt Q9GZX9, -5.61 °C.
As to UniProt Q9H5H4, the melting temperature shift was -3.38 °C.
Still for that read-out and setting: the value for UNC93B1 (UniProt Q9H1C4) was -0.416 °C; that for DDX31 (UniProt Q9H8H2) was -0.269 °C; that for VPS11 (UniProt Q9H270) was -0.725 °C.
Same read-out and setting: the value for MTMR12 (UniProt Q9C0I1) was -1.32 °C.
Consider SIL1 (UniProt Q9H173), for which the melting temperature shift was -0.891 °C.
Same read-out and setting: the value for ATG5 (UniProt Q9H1Y0) was -0.268 °C.
In the case of RAB3GAP2 (UniProt Q9H2M9), the melting temperature shift is -0.913 °C.
With PNN (UniProt Q9H307), the melting temperature shift was -1.55 °C.
On the same count and under the same terms, the value for SLIRP (UniProt Q9GZT3) was -0.327 °C; that for UCK2 (UniProt Q9BZX2) was -1.31 °C; that for GGNBP2 (UniProt Q9H3C7) was -0.899 °C.
NT5DC2 (UniProt Q9H857): the melting temperature shift is -1.31 °C.
On the same count and under the same terms, with FUT8 (UniProt Q9BYC5) the figure was -0.647 °C; with UniProt Q9BYM8, 0.269 °C.
Take SLK (UniProt Q9H2G2): the melting temperature shift came out at 0.641 °C.
Same read-out and setting: with ILKAP (UniProt Q9H0C8) the figure was -0.0047 °C.
UniProt Q9H0K1: the melting temperature shift is -0.293 °C.
As to OSBPL3 (UniProt Q9H4L5), the melting temperature shift is -0.952 °C.
In the case of TFB2M (UniProt Q9H5Q4), the melting temperature shift turned out to be 0.293 °C.
On to UniProt Q9H4B6, for which the melting temperature shift is -1.17 °C.
On the same count and under the same terms, with FAM83D (UniProt Q9H4H8) the figure was -0.776 °C.

Staying with this experiment, now noted: A375; MBE1 concentration: 1 uM.
On to GTPBP4 (UniProt Q9BZE4), for which the melting temperature shift was -0.0192 °C.
On the same count and under the same terms, with RBSN (UniProt Q9H1K0) the figure was -0.885 °C; with SMARCAD1 (UniProt Q9H4L7), -0.576 °C; with NAT10 (UniProt Q9H0A0), 0.047 °C.
The same measure, in the same setting: the value for UniProt Q9H6A9 was 0.763 °C.
With UACA (UniProt Q9BZF9), the melting temperature shift was -0.429 °C.
The same measure, in the same setting: the value for ALG2 (UniProt Q9H553) was 0.403 °C; that for UniProt Q9H0V1 was 0.263 °C.
As for MRPL18 (UniProt Q9H0U6), the melting temperature shift came to 1.74 °C.
As to PDCL3 (UniProt Q9H2J4), the melting temperature shift was determined as 1.16 °C.
Same read-out and setting: the value for UniProt Q9H6L2 was 0.0122 °C; that for KIF13A (UniProt Q9H1H9) was 0.8 °C; that for TMEM245 (UniProt Q9H330) was 0.618 °C.
On the same count and under the same terms, the value for UniProt Q9C026 was 0.786 °C.
On the same count and under the same terms, the value for WDR13 (UniProt Q9H1Z4) was 1.02 °C; that for UniProt Q9GZX9 was -7.58 °C; that for UniProt Q9H5H4 was -2.83 °C.
Take UNC93B1 (UniProt Q9H1C4): the melting temperature shift was 0.912 °C.
For DDX31 (UniProt Q9H8H2), the melting temperature shift is -0.365 °C.
Regarding VPS11 (UniProt Q9H270), the melting temperature shift is -1.26 °C.
On the same count and under the same terms, the value for MTMR12 (UniProt Q9C0I1) was -0.0488 °C.
Consider SIL1 (UniProt Q9H173), for which the melting temperature shift worked out at 0.852 °C.
As for ATG5 (UniProt Q9H1Y0), the melting temperature shift is -0.148 °C.
RAB3GAP2 (UniProt Q9H2M9): the melting temperature shift was -0.767 °C.
Consider PNN (UniProt Q9H307), for which the melting temperature shift is -0.382 °C.
Same read-out and setting: with SLIRP (UniProt Q9GZT3) the figure was -0.423 °C.
For the target UCK2 (UniProt Q9BZX2), the melting temperature shift is -1.24 °C.
As for GGNBP2 (UniProt Q9H3C7), the melting temperature shift came to 0.526 °C.
The same measure, in the same setting: the value for NT5DC2 (UniProt Q9H857) was -0.154 °C; that for FUT8 (UniProt Q9BYC5) was 0.238 °C; that for UniProt Q9BYM8 was -0.183 °C.
As to SLK (UniProt Q9H2G2), the melting temperature shift is 0.0794 °C.
Same read-out and setting: the value for ILKAP (UniProt Q9H0C8) was 1.84 °C; that for UniProt Q9H0K1 was 0.756 °C; that for OSBPL3 (UniProt Q9H4L5) was -0.0769 °C.
On the same count and under the same terms, with TFB2M (UniProt Q9H5Q4) the figure was -0.0916 °C; with UniProt Q9H4B6, -2.41 °C.
Same read-out and setting: with FAM83D (UniProt Q9H4H8) the figure was 0.348 °C.
